# Reference: publication PMC5093147
# Molecular target: T1, RsrR (Acidithiobacillus caldus MTH-04) (UniProt A4ZV27)
# T1 sequence (looked up): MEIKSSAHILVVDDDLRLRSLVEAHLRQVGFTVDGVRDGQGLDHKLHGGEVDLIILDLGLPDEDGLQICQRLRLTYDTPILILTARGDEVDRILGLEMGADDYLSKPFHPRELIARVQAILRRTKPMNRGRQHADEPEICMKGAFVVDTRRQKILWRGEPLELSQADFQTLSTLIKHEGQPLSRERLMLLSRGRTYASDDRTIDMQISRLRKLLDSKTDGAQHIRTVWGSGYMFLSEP
# Test: EMSA
# Details: 1 ug RsrR, 200 ng DNA, 1 ug salmon sperm DNA, 15 uL, 1x Binding Buffer (composition not given), room temperature 20 min + 20 min, 6.5% native PAGE in 0.25x TBE on ice, recombinant protein, residues 1-238, label: none (ethidium bromide stain), probe letters rebuilt from the primers and the genome
row,Sequence,binding result
1,CGCAATATTCTGCGGGCGGTCTATGAAGCCGAGCGGCAGAACGAGATTCAGATCGTCGCCATCAACGATCTCGGCAGCCCGGAGACCAATGCCCATCTGACCCAGTACGACTCGGTACACGGCCGCTTTCCCTTCCCCGTCAGCGTCGAGGGGCAGGAGATGTTGGTGGGCAAGGATCGCGTGCGGGTTCTGGCGGAGCGGGATCCGAGCAAGCTGCCCTGGGGTGACCTGGGGGTGGACGTGGTGCTGGAGTGCACCGGCATCTTCACCACCCGCGAAAAGGCGTCGCTGCACATCCAGGGTGGCGCCAAGAAGGTCCTGATCTCCGCCCCGGCCAAGGATCCGGTGGACCTTACCGTAAATTGTAACACCTGTTACACCTGTTACAACTTGTTACATAAGCTAAAACTTATATGCA (double strand) [G360+58IRS],binds
2,GATATATAATCTCCGAATCGCTAATACGTTGTCTAGGGGCATAACTACGCCGCGCTTCGGATAGTATACTCGGGGCCCATAGGAGACAATTGCATATAAGTTTTAGCTTATGTAACAAGTTGTACAATTTACGTGCGTTGAATTCCTGTCTCTGTGCCGATGTTACTCCATCTTGTACTCTCGGAAGGCAAATGGTTGCCGCCAGCCCATCCTCTGATGTGAAATGCAAAGAGCCCTTGTGCAATGCCATGATGCGATGACAAATCATCAACCCGATTCCCATCCCATGTCCGGGTTGCCGAGCAGACTCGCCACTGTTCATTCTGTACACAATCGGCGCT (double strand) [T360Δ19],no binding

# No signal at the amounts used counts as a negative. Tags and fusion partners may be left off the protein sequences shown.
